# Test results taken from publication doi:10.1101/2021.12.02.470956.
# These are yes or no findings as the source states them, for the method shown. Binding seen in cells or lysates may run through a third protein.
# Target: PML (promyelocytic leukemia protein)
# Test: FRET or BRET
binder,measurement,value
"Arc (construct of the lifetime-FRET test with PML) (protein, UniProt Q9WV31 1-396) MELDHMTTGGLHAYPAPRGGPAAKPNVILQIGKCRAEMLEHVRRTHRHLLTEVSKQVERELKGLHRSVGKLENNLDGYVPTGDSQRWKKSIKACLCRCQETIANLERWVKREMHVWREVFYRLERWADRLESMGGKYPVGSEPARHTVSVGVGGPEPYCQEADGYDYTVSPYAITPPPAAGELPEQESVEAQQYQSWGPGEDGQPSPGVDTQIFEDPREFLSHLEEYLRQVGGSEEYWLSQIQNHMNGPAKKWWEFKQGSVKNWVEFKKEFLQYSEGTLSREAIQRELELPQKQGEPLDQFLWRKRDLYQTLYVDAEEEEIIQYVVGTLQPKLKRFLRHPLPKTLEQLIQRGMEVQDGLEQAAEPSGTPLPTEDETEALTPALTSESVASDRTQPE",binding,no binding
